Laboratory results from US20070135383A1, “Phospholipase inhibitors, including multi-valent phospholipase inhibitors, and use thereof, including as lumen-localized phospholipase inhibitors” (priority 2005, published 2007).

Test: in vitro
Settings: human, Caco-2

Papp A→B at 6 hr, 50 ug/ml: ~13.2 ×10⁻⁶ cm/s
SMILES: CC(C)NCC(O)COc1cccc2ccccc12 (stereo not shown) [Propranolol]
